Reference: the supplement of paper PMC10849652
This is one part of the list.

The chains behind the UniProt entries cited, without tags or fusion partners. Where a name states a change or a piece, a line headed by the entry shows the natural chain unless it says otherwise.
UniProt O95202: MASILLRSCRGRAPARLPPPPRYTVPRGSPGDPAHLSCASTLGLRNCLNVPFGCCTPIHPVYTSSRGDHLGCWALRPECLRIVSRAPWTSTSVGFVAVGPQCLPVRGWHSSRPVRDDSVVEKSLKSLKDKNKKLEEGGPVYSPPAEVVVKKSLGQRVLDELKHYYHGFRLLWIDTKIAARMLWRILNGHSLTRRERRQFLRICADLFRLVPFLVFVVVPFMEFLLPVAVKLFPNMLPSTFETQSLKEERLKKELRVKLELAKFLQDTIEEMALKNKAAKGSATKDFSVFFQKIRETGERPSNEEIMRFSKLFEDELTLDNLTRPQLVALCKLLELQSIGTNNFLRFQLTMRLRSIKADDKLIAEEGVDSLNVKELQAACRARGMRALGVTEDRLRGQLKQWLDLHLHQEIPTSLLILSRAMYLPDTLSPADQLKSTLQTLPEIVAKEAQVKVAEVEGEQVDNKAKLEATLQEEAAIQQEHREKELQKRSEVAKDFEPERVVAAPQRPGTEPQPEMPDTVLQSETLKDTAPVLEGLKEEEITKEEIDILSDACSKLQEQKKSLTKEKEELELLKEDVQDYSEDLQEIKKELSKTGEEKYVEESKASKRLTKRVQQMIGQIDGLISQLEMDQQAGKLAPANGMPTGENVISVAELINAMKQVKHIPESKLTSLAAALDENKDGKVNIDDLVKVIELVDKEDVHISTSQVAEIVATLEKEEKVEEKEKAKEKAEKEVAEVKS
UniProt Q86U70: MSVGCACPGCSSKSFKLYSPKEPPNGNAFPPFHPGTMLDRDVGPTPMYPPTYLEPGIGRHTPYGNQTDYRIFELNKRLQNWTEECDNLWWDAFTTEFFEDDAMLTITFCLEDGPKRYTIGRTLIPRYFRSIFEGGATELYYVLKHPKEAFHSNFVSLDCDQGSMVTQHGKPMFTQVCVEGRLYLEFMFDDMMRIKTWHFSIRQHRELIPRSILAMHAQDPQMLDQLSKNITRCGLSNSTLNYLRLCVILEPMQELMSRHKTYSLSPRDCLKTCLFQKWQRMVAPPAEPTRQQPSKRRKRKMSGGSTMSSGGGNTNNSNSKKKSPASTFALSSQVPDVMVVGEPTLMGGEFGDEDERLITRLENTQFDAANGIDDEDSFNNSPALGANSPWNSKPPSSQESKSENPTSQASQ
UniProt P48059, whole entry, looked up: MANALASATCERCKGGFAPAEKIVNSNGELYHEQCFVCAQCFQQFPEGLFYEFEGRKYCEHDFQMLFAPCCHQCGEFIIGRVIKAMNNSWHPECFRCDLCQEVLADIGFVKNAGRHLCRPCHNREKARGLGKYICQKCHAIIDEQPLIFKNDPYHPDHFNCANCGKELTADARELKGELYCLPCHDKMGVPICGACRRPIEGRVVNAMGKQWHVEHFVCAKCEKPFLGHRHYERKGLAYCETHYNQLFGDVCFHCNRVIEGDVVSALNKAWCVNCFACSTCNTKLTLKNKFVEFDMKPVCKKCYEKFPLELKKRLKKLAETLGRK
UniProt P48449: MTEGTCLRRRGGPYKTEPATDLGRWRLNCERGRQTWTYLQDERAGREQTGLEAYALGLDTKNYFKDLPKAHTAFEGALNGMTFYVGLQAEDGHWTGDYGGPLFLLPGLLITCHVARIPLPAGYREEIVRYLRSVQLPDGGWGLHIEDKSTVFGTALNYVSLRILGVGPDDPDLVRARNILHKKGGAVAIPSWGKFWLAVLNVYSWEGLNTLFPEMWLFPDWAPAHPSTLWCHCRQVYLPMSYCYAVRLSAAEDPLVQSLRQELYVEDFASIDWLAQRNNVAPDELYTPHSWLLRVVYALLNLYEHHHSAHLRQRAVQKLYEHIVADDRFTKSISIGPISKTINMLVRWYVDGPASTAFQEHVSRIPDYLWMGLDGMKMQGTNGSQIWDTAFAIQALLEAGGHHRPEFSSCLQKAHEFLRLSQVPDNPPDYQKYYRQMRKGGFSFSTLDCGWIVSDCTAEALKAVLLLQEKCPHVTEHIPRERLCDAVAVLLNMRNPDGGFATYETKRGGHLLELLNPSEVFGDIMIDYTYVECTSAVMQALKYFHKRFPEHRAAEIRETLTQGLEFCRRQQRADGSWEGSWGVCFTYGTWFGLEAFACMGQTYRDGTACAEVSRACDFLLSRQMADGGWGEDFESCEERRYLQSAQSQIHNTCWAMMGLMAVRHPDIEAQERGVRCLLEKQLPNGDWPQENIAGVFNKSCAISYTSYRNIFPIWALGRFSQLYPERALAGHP
UniProt P36776: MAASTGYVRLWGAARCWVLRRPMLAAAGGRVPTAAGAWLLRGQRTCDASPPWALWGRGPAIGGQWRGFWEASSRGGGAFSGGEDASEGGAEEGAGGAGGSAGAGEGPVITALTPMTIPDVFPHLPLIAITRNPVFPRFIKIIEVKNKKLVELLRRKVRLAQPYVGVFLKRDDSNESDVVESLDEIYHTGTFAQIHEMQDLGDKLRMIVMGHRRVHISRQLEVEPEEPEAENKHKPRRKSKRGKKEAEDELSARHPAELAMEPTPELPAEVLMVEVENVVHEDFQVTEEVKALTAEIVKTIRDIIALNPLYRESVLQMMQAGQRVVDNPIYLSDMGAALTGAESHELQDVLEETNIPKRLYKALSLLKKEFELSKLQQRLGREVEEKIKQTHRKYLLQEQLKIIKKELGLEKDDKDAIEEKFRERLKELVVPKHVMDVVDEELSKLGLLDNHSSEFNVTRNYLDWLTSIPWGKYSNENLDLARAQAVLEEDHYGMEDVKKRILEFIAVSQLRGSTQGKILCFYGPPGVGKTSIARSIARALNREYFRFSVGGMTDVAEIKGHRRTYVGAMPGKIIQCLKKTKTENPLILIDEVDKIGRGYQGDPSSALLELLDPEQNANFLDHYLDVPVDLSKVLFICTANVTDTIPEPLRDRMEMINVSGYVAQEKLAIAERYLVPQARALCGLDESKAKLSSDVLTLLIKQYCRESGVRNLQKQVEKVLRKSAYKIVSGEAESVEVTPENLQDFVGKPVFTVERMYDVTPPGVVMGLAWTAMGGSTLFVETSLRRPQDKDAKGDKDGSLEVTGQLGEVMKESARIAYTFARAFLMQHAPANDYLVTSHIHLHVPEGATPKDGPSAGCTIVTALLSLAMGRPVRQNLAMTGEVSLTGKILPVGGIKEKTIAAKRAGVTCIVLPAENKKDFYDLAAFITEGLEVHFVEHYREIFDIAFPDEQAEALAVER
UniProt Q9NT99: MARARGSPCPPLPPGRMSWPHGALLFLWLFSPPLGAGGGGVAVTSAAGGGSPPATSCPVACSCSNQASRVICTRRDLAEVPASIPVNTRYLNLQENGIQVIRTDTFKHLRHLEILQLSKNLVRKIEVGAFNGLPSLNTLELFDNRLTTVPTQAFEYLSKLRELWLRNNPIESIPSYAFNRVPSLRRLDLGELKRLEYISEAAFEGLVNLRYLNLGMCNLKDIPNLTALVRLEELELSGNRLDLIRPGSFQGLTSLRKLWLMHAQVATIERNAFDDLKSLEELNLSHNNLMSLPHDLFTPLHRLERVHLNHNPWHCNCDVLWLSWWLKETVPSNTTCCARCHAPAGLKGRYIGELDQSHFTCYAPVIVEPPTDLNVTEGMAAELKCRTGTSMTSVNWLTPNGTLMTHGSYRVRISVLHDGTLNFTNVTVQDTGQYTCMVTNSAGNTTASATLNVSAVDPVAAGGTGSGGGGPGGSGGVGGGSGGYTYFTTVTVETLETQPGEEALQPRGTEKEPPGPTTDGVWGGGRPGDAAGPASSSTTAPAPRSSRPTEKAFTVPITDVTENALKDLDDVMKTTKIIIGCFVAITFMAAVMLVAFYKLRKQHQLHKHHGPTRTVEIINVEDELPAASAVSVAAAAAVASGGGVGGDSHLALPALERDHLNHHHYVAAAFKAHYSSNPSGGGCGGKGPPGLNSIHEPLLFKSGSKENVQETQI
UniProt Q6P1A2: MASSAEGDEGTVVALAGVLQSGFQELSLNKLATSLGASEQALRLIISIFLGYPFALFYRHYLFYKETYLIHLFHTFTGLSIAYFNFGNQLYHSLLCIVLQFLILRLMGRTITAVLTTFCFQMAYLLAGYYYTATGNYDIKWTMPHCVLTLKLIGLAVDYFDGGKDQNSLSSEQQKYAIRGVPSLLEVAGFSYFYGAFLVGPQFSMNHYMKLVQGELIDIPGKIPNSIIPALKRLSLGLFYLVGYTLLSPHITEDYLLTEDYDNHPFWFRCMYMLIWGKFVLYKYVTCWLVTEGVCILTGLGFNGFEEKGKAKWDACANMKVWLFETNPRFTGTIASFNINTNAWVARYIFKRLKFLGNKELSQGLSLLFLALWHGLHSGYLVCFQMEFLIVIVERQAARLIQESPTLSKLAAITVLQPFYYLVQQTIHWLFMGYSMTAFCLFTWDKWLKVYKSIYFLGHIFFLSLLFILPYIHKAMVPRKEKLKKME
UniProt Q12907: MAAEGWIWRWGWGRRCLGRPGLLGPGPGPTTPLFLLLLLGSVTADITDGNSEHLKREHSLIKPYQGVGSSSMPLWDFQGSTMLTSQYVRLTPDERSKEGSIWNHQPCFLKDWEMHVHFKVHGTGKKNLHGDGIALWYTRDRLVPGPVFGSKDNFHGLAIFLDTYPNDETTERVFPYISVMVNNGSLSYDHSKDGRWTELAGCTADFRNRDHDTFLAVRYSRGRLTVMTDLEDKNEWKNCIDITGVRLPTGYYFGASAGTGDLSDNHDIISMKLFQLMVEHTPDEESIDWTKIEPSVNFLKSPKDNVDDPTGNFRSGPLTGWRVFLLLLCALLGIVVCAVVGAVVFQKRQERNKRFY
UniProt P30533, whole entry, looked up: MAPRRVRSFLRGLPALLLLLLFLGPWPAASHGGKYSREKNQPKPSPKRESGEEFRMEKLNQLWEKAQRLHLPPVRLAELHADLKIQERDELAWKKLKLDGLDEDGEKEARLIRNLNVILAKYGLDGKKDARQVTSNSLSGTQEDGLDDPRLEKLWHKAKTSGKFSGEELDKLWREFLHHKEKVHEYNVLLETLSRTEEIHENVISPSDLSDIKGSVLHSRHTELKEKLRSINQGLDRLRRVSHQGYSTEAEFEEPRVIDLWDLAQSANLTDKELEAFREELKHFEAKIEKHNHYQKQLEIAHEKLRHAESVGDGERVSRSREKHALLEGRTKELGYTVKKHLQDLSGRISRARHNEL
UniProt Q6ZN17: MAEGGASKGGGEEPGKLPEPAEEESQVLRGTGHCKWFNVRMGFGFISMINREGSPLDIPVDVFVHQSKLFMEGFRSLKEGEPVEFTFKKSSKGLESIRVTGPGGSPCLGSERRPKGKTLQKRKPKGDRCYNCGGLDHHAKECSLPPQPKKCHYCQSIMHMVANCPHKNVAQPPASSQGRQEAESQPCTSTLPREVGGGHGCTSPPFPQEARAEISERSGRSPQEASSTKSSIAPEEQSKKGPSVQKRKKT
UniProt Q9H008: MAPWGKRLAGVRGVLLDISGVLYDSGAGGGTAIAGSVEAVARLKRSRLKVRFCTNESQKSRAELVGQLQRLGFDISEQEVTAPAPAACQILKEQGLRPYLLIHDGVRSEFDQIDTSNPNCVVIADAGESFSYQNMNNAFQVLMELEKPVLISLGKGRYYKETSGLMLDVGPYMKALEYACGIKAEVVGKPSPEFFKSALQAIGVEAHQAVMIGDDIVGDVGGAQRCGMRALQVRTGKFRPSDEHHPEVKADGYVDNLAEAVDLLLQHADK
UniProt Q14847: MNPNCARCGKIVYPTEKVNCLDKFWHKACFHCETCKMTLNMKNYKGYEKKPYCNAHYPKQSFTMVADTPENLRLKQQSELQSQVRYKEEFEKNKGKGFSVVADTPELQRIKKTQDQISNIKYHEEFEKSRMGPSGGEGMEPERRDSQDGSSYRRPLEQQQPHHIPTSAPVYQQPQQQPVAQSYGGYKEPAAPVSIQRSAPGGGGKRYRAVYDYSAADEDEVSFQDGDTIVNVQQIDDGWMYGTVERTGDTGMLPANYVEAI
UniProt Q8N448: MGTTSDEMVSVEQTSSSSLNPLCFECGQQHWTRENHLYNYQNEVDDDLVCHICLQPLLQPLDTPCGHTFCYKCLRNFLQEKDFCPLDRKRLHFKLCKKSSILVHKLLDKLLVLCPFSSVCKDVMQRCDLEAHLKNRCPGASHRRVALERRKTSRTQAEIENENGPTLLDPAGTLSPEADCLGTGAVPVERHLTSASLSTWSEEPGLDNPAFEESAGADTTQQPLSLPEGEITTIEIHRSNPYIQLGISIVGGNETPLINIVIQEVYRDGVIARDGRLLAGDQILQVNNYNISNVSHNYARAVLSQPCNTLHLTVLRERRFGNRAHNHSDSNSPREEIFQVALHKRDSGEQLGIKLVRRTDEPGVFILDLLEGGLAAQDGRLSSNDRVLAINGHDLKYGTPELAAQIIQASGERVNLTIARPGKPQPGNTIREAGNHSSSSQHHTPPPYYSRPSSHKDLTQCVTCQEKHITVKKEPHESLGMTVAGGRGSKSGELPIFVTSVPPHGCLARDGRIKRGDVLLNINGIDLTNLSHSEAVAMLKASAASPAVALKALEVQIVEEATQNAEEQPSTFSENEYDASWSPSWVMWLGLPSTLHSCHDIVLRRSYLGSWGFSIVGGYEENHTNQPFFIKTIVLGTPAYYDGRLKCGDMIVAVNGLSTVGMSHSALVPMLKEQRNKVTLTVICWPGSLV

Legend:
Test in all cases: log2 fold change, soluble protein after heating vs DMSO (PISA); higher = thermal stabilisation; K562 lysate, 10 uM; active = over 0.2 and 3.5 SD of the protein, either way, in both replicates (recomputed)
nilotinib = compound: Cc1cn(-c2cc(NC(=O)c3ccc(C)c(Nc4nccc(-c5cccnc5)n4)c3)cc(C(F)(F)F)c2)cn1 [nilotinib]
In short: (§1)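 Thermal stability, expressed as log-two fold change relative to solvent controls, is given from duplicates. Crude K562 extract in PBS pH 7.4 with 1 mM MgCl2, at 1 mg/mL protein, was treated with 10 μM compound for 30 min and heated in aliquots for 3 min across 48°C-58°C. After pooling, adjustment to 0.5% NP-40 at 4°C and centrifugation at 21,000xg for 90 min, supernatant protein was measured by TMTpro 16plex LC-MS/MS with channel sums equalised.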

[1] = compound: Cc1nc(Nc2n[nH]c3c2CN(C(=O)N[C@H](CN(C)C)c2ccccc2)C3(C)C)c2sccc2n1
In short: as §1

dasatinib = compound: Cc1nc(Nc2ncc(C(=O)Nc3c(C)cccc3Cl)s2)cc(N2CCN(CCO)CC2)n1 [dasatinib]
In short: as §1

[2] = compound: Cc1ncc(-c2ccnc(Nc3ccc(S(C)(=O)=O)cc3)n2)n1C(C)C
In short: as §1

[3] = compound: Cn1cc(-c2ccc3c(c2)CCN3C(=O)Cc2cccc(C(F)(F)F)c2)c2c(N)ncnc21
In short: as §1

quisinostat = compound: Cn1cc(CNCC2CCN(c3ncc(C(=O)NO)cn3)CC2)c2ccccc21 [quisinostat]
In short: as §1

tipifarnib = compound: Cn1cncc1[C@@](N)(c1ccc(Cl)cc1)c1ccc2c(c1)c(-c1cccc(Cl)c1)cc(=O)n2C [tipifarnib]
In short: as §1

[4] = compound: NC(=O)Nc1cc(-c2cccc(F)c2)sc1C(=O)N[C@H]1CCCNC1
In short: as §1

[5] = compound: NC(=O)c1cnc(N[C@@H]2CCCC[C@@H]2N)nc1Nc1cccc(-n2nccn2)c1
In short: as §1

[6] = compound: NC1(c2ccc(-c3nc4ccn5c(=O)[nH]nc5c4cc3-c3ccccc3)cc2)CCC1
In short: as §1

[7] = compound: NCC(=O)Nc1ccc(-n2nc(C(F)(F)F)cc2-c2ccc3c(ccc4ccccc43)c2)cc1
In short: as §1

vorinostat = compound: O=C(CCCCCCC(=O)Nc1ccccc1)NO [vorinostat]
In short: as §1

silmitasertib = compound: O=C(O)c1ccc2c(c1)nc(Nc1cccc(Cl)c1)c1ccncc12 [silmitasertib]
In short: as §1

[8] = compound: O=C1NC(=O)C(c2cnc3ccccn23)=C1c1cn2c3c(cc(F)cc13)CN(C(=O)N1CCCCC1)CC2
In short: as §1

entospletinib = compound: c1cn2cc(-c3ccc4cn[nH]c4c3)nc(Nc3ccc(N4CCOCC4)cc3)c2n1 [entospletinib]
In short: as §1

Target | log2 fold change (nilotinib) | log2 fold change [1] | log2 fold change (dasatinib) | log2 fold change [2] | log2 fold change [3] | log2 fold change (quisinostat) | log2 fold change (tipifarnib) | log2 fold change [4] | log2 fold change [5] | log2 fold change [6] | log2 fold change [7] | log2 fold change (vorinostat) | log2 fold change (silmitasertib) | log2 fold change [8] | log2 fold change (entospletinib)
LETM1 (UniProt O95202) | inactive: 0.038 | inactive: -0.021 | inactive: -0.008 | inactive: 0.048 | inactive: 0.007 | inactive: 0.043 | inactive: 0.008 | inactive: -0.012 | inactive: -0.011 | inactive: -0.024 | inactive: -0.041 | inactive: 0.084 | inactive: -0.021 | inactive: -0.006 | inactive: 0.009
LRRFIP1 (UniProt Q32MZ4) | inactive: -0.021 | inactive: 0.002 | inactive: 0.027 | inactive: 0.019 | inactive: 0.005 | inactive: -0.007 | inactive: 0.001 | inactive: -0.036 | inactive: -0.009 | inactive: 0.008 | inactive: 0.018 | inactive: 0.002 | inactive: -0.009 | inactive: 0.003 | inactive: -0.011
LDB1 (UniProt Q86U70) | inactive: 0.047 | inactive: 0.04 | inactive: 0.006 | inactive: -0.04 | inactive: 0.001 | inactive: 0.043 | inactive: -0.006 | inactive: 0.022 | inactive: -0.039 | inactive: 0.02 | inactive: 0.014 | inactive: -0.054 | inactive: -0.026 | inactive: 0.036 | inactive: -0.046
LIMS1 isoform 3 (UniProt P48059) | inactive: 0.076 | inactive: 0.035 | inactive: 0.017 | inactive: 0.104 | inactive: 0.018 | active: 0.255 | inactive: 0.002 | inactive: -0.065 | inactive: -0.007 | inactive: 0.001 | inactive: -0.022 | inactive: 0.049 | inactive: 0.013 | inactive: 0.054 | inactive: -0.016
LNPEP (UniProt Q9UIQ6) | inactive: 0.029 | inactive: 0.002 | inactive: 0.033 | inactive: 0.03 | inactive: -0.014 | inactive: -0.046 | inactive: 0.007 | inactive: -0.009 | inactive: -0.009 | inactive: -0.019 | inactive: 0.001 | inactive: 0.102 | inactive: 0.002 | inactive: -0.005 | inactive: 0.017
LRIF1 (UniProt Q5T3J3) | inactive: -0.147 | inactive: 0.086 | inactive: 0.047 | inactive: 0.022 | inactive: -0.011 | inactive: 0 | inactive: 0.057 | inactive: -0.008 | inactive: -0.163 | inactive: -0.056 | inactive: 0.079 | inactive: 0.082 | inactive: -0.11 | inactive: -0.024 | inactive: 0.001
LGALS3 (UniProt P17931) | inactive: -0.007 | inactive: 0.038 | inactive: 0.494 | inactive: 0.026 | inactive: -0.355 | inactive: -0.053 | inactive: -0.005 | inactive: -0.106 | inactive: 0.047 | inactive: 0 | inactive: -0.027 | inactive: 0.121 | inactive: -0.145 | inactive: 0.074 | inactive: 0.247
LSS (UniProt P48449) | inactive: 0.042 | inactive: 0.001 | inactive: 0.016 | inactive: -0.025 | inactive: 0.047 | inactive: -0.022 | inactive: -0.065 | inactive: 0.003 | inactive: 0.083 | inactive: 0.092 | inactive: -0.042 | inactive: 0.049 | inactive: -0.039 | inactive: -0.014 | inactive: -0.043
LONP1 (UniProt P36776) | inactive: 0.025 | inactive: 0 | inactive: -0.013 | inactive: 0 | inactive: -0.005 | inactive: 0.06 | inactive: 0.024 | inactive: -0.034 | inactive: 0.187 | inactive: -0.018 | inactive: 0.015 | inactive: 0.048 | inactive: -0.009 | inactive: -0.005 | inactive: 0.014
LRRC4B (UniProt Q9NT99) | inactive: -0.098 | inactive: -0.079 | inactive: 0.149 | inactive: -0.06 | inactive: 0.152 | inactive: -0.143 | inactive: 0.048 | inactive: 0.033 | inactive: 0.12 | inactive: -0.032 | inactive: -0.179 | inactive: 0.055 | inactive: 0.059 | inactive: 0.005 | inactive: -0.03
LRRC14 (UniProt Q15048) | inactive: -0.017 | inactive: 0.025 | inactive: -0.055 | inactive: -0.02 | inactive: 0.058 | inactive: -0.007 | inactive: 0.03 | inactive: 0.028 | inactive: 0.02 | inactive: -0.024 | inactive: 0.038 | inactive: -0.304 | inactive: 0.014 | inactive: -0.031 | inactive: -0.014
LPCAT3 (UniProt Q6P1A2) | inactive: 0.013 | inactive: -0.005 | inactive: 0.074 | inactive: 0.113 | inactive: 0.043 | inactive: -0.048 | inactive: -0.022 | inactive: 0.184 | inactive: -0.028 | inactive: 0.012 | inactive: 0.071 | inactive: 0.013 | inactive: 0.006 | inactive: -0.023 | inactive: -0.138
LMAN2 (UniProt Q12907) | inactive: 0.006 | inactive: -0.017 | inactive: 0.02 | inactive: 0.002 | inactive: -0.007 | inactive: -0.004 | inactive: -0.048 | inactive: -0.005 | inactive: 0 | inactive: 0.002 | inactive: 0.006 | inactive: 0.135 | inactive: 0.003 | inactive: 0.012 | inactive: -0.006
LRPAP1 (UniProt P30533) | inactive: -0.037 | inactive: 0.001 | inactive: 0.031 | inactive: 0.031 | inactive: 0.004 | inactive: 0.092 | inactive: 0.019 | inactive: 0.001 | inactive: 0.038 | inactive: 0.01 | inactive: 0.014 | inactive: 0.117 | inactive: -0.005 | inactive: -0.035 | inactive: -0.032
LMNA (UniProt P02545) | inactive: 0.015 | inactive: -0.08 | inactive: 0.071 | inactive: 0.006 | inactive: -0.032 | inactive: 0.068 | inactive: -0.029 | inactive: -0.023 | inactive: 0.016 | inactive: 0.021 | inactive: 0.001 | inactive: 0.063 | inactive: 0.005 | inactive: -0.036 | inactive: -0.019
LIN28B (UniProt Q6ZN17) | inactive: -0.031 | inactive: 0.011 | inactive: 0.021 | inactive: 0 | inactive: 0.015 | inactive: 0.012 | inactive: 0.017 | inactive: 0.023 | inactive: -0.006 | inactive: -0.006 | inactive: -0.005 | inactive: 0.006 | inactive: -0.03 | inactive: -0.027 | inactive: 0.036
LHPP (UniProt Q9H008) | inactive: -0.059 | inactive: 0.056 | inactive: 0.047 | inactive: 0.118 | inactive: 0.011 | inactive: -0.05 | inactive: 0.029 | inactive: -0.002 | inactive: 0.014 | inactive: 0.008 | inactive: -0.035 | inactive: 0.137 | inactive: -0.02 | inactive: 0.009 | inactive: -0.049
LGALS3BP (UniProt Q08380) | inactive: -0.056 | inactive: 0.06 | inactive: 0.339 | inactive: -0.043 | inactive: -0.128 | inactive: -0.007 | inactive: -0.123 | inactive: 0.111 | inactive: 0.125 | inactive: 0.137 | inactive: 0.153 | inactive: 0.176 | inactive: -0.121 | inactive: 0.113 | inactive: -0.129
LENG1 (UniProt Q96BZ8) | inactive: -0.03 | inactive: -0.19 | inactive: 0.03 | inactive: 0.063 | inactive: 0.018 | inactive: -0.069 | inactive: 0.01 | inactive: 0.003 | inactive: 0.048 | inactive: 0.005 | inactive: 0.049 | inactive: 0.053 | inactive: 0.06 | inactive: -0.002 | inactive: -0.022
LASP1 (UniProt Q14847) | inactive: -0.067 | inactive: 0.027 | inactive: -0.014 | inactive: 0.009 | inactive: -0.003 | inactive: -0.002 | inactive: 0.062 | inactive: -0.008 | inactive: -0.009 | inactive: 0.048 | inactive: 0.039 | inactive: 0.152 | inactive: -0.006 | inactive: -0.006 | inactive: 0.007
LNX2 (UniProt Q8N448) | inactive: 0.021 | inactive: 0.145 | inactive: -0.077 | inactive: 0.051 | inactive: -0.062 | – | inactive: -0.207 | – | – | inactive: 0.07 | inactive: -0.26 | inactive: 0.74 | inactive: 0.382 | – | inactive: -0.036

2 neighbouring records out of the list so far, for reference:
Target | log2 fold change (nilotinib) | log2 fold change [1] | log2 fold change (dasatinib) | log2 fold change [2] | log2 fold change [3] | log2 fold change (quisinostat) | log2 fold change (tipifarnib) | log2 fold change [4] | log2 fold change [5] | log2 fold change [6] | log2 fold change [7] | log2 fold change (vorinostat) | log2 fold change (silmitasertib) | log2 fold change [8] | log2 fold change (entospletinib)
LMNA (UniProt P02545) | inactive: 0.015 | inactive: -0.08 | inactive: 0.071 | inactive: 0.006 | inactive: -0.032 | inactive: 0.068 | inactive: -0.029 | inactive: -0.023 | inactive: 0.016 | inactive: 0.021 | inactive: 0.001 | inactive: 0.063 | inactive: 0.005 | inactive: -0.036 | inactive: -0.019
LIN28B (UniProt Q6ZN17) | inactive: -0.031 | inactive: 0.011 | inactive: 0.021 | inactive: 0 | inactive: 0.015 | inactive: 0.012 | inactive: 0.017 | inactive: 0.023 | inactive: -0.006 | inactive: -0.006 | inactive: -0.005 | inactive: 0.006 | inactive: -0.03 | inactive: -0.027 | inactive: 0.036
